Measured data: PubChem BioAssay AID504784 (Drosophila RNAi Screening Center, 2011)
Purpose: 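Search for regulators of lipid droplet storage in oleate-fed fly cells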 (primary screen). System: Drosophila Kc167 embryonic cells. Knock-down reagent: long dsRNA against Drosophila genes, about 250 ng dsRNA per well. Duration: 4 days. Conditions: cells fed 400 µM oleic acid bound to BSA. Read-out: 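Cells imaged and segmented; ratio of lipid droplet area to nuclear area, log-transformed, then normalised as a B-score over the screen; higher means more stored lipid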. Direction: droplet/nuclear area B-score: higher = more stored lipid (overstorage).
The deposit covers about 17,000 reagents; below is an unselected part of those with a known target gene and a result. 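Each column is one replicate's B-score; the combined score over replicates was not deposited, so single values may mislead.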 A plus sign joins genes that one reagent is predicted to hit.

| Target gene | amplicon | droplet/nuclear area B-score, replicate 1 | droplet/nuclear area B-score, replicate 2 | droplet/nuclear area B-score, replicate 3 |
| --- | --- | --- | --- | --- |
| CG33191 + Pif1B | DRSC12706 | 0.0251 | -0.1 | – |
| Aos1 (Activator of SUMO 1) | DRSC14113 | 0.981 | 4.55 | – |
| CG16710 | DRSC15136 | -1.7 | -2.06 | – |
| Dhc1 (Dynein heavy chain 1) | DRSC16503 | -0.586 | 0.139 | – |
| Akt (Akt kinase) | DRSC14108 | 0.18 | -0.102 | – |
| snama (something that sticks like glue) | DRSC04049 | -0.584 | 0.649 | – |
| Arp10 (Actin-related protein 10) | DRSC19448 | 0.116 | 0.436 | – |
| CG7168 | DRSC16208 | -0.269 | 0.947 | – |
| CG31189 | DRSC16198 | -0.0975 | 0.828 | – |
| PolA2 (DNA polymerase alpha subunit 2) | DRSC16641 | -0.324 | -1.7 | – |
| Tmx3 (Thioredoxin-related transmembrane protein 3) | DRSC10471 | -2.52 | -0.0935 | -1.56 |
| dmt (dalmatian) | DRSC16932 | -0.0538 | 3.92 | – |
| dgrn (degringolade) | DRSC12154 | 0.63 | -0.361 | – |
| kkv (krotzkopf verkehrt) | DRSC12315 | -3.84 | 0.239 | – |
| fos28F (retired record) | DRSC03391 | -2.44 | -0.913 | – |
| FMRFa (FMRFamide) | DRSC07428 | 0.34 | 0.416 | – |
| moon (moonshiner) | DRSC19497 | 0.01 | -0.0472 | -0.0215 |
| Ufl1 (UFM1 specific ligase 1) | DRSC12527 | 0.616 | -1.96 | – |
| CG32845 | DRSC07867 | 0.917 | 0.226 | – |
| RhoBTB (Rho-related BTB domain containing) | DRSC11877 | 0.587 | -0.613 | 0.515 |
| CG6441 | DRSC02957 | 2.06 | 0.251 | – |
| CG3226 | DRSC18296 | 0.415 | 1.07 | -2.04 |
| CG10713 | DRSC09786 | 3.99 | 2.53 | – |
| OtopLb (Otopetrin-like b) | DRSC00594 | -0.546 | -0.314 | – |
| Exo70 (Exocyst 70) | DRSC10774 | -1.46 | -0.22 | – |
| CG14615 | DRSC20627 | 2.91 | 0.924 | – |
| p130CAS + Dic61B | DRSC08588 | -1.12 | 0.89 | – |
| vg (vestigial) | DRSC07715 | 0.0471 | -0.621 | 0.0542 |
| vg (vestigial) | DRSC22669 | -0.836 | 0.218 | – |
| tctn + B9d2 | DRSC03160 | 0.0954 | -0.0288 | – |
| CG32152 | DRSC22906 | 0.0292 | 0.115 | – |
| CG12402 | DRSC14508 | 0.125 | 0.0425 | – |
| CG8841 | DRSC07286 | 0.499 | 0.234 | – |
| h-cup (heineken-cup) | DRSC15973 | 0.0776 | – | – |
| CG11626 | DRSC14336 | -0.286 | -1.71 | – |
| CG4953 | DRSC02792 | 0.405 | 1.26 | – |
| l(2)10685 (lethal (2) 10685) | DRSC00665 | 0.215 | -0.389 | – |
| Naa30B (N(alpha)-acetyltransferase 30 B) | DRSC08245 | -0.434 | 0.153 | – |
| Ptp69D (Protein tyrosine phosphatase 69D) | DRSC11258 | 1.18 | -0.564 | – |
| CG6470 | DRSC19994 | 0.0611 | 1.35 | – |
| CG9861 | DRSC04576 | -1.56 | 0.797 | – |
| CG13050 | DRSC09931 | 0.794 | -1.99 | – |
| KaiR1D (Kainate-type ionotropic glutamate receptor subunit 1D) | DRSC15516 | 0.345 | 0.00807 | – |
| CG2921 | DRSC04324 | -1.4 | 0.268 | – |
| Smu1 (Smu1 spliceosomal factor) | DRSC15803 | -1.03 | -3.13 | – |
| CG5916 | DRSC15917 | 1.15 | -0.62 | – |
| Nlg1 (Neuroligin 1) | DRSC12485 | 2.86 | 0.00839 | – |
| Nlg1 (Neuroligin 1) | DRSC12532 | 0.267 | -0.525 | – |
| Nlg1 (Neuroligin 1) | DRSC12533 | 0.578 | -0.175 | – |
| Nlg1 (Neuroligin 1) | DRSC12539 | -1.97 | 0.0135 | – |
| CG4669 | DRSC10440 | -0.118 | -0.716 | – |
| CG12164 | DRSC06115 | -0.134 | 0.601 | – |
| CG12164 | DRSC21777 | 0.383 | -2.51 | – |
| Cyp9f3 (Cytochrome P450 9f3) | DRSC16636 | -2.53 | -1.43 | – |
| CG30054 | DRSC05354 | 0.266 | -1.09 | – |
| Ptpmeg (Protein tyrosine phosphatase Meg) | DRSC08684 | 1.14 | -0.257 | – |
| CG31804 | DRSC22728 | 0.224 | -0.79 | – |
| MAN1 | DRSC04342 | -0.0577 | -0.595 | – |
| unc-119 | DRSC18846 | 0.388 | -1.58 | – |
| Rbf2 (Retinoblastoma-family protein 2) | DRSC16816 | 0.811 | 2.56 | – |
| Cyp308a1 (Cytochrome P450 308a1) | DRSC20238 | -0.116 | 0.174 | – |
| trio | DRSC07928 | 1.43 | 0.279 | – |
| trio | DRSC08527 | 2.61 | – | – |
| trio | DRSC08740 | 0.401 | -1.09 | – |
| Btk (Bruton tyrosine kinase) | DRSC02008 | -0.0383 | 0.000552 | – |
| Btk (Bruton tyrosine kinase) | DRSC02666 | -0.951 | -0.24 | – |
| Btk (Bruton tyrosine kinase) | DRSC22427 | -0.104 | -1.35 | – |
| CG8281 | DRSC10976 | 0.718 | 0.743 | – |
| c(3)G (crossover suppressor on 3 of Gowen) | DRSC15245 | -1.54 | 1.92 | – |
| Pisd (Phosphatidylserine decarboxylase) | DRSC15935 | -1.76 | -0.623 | – |
| Traf-like (TNF-receptor-associated factor-like) | DRSC19894 | -0.871 | 1.72 | -0.533 |
| CG10301 | DRSC14226 | -0.0929 | -0.0197 | – |
| MagR (Magnetic receptor) | DRSC20092 | 4.06 | 4.06 | – |
| Tis11 (Tis11 zinc finger protein) | DRSC20293 | 3.89 | 2.09 | 1.86 |
| Tis11 (Tis11 zinc finger protein) | DRSC23110 | -0.395 | -0.948 | – |
| CG14362 | DRSC14824 | -0.575 | 0.555 | – |
| CG14427 | DRSC17921 | 0.205 | 0.0469 | – |
| ppk20 (pickpocket 20) | DRSC16260 | -0.467 | -0.13 | – |
| CG5863 | DRSC15898 | 1.31 | -0.245 | – |
| mdlc (midlife crisis) | DRSC15690 | 0.00947 | -0.469 | – |
| Oatp58Db (Organic anion transporting polypeptide 58Db) | DRSC04364 | -0.529 | 0.0753 | – |
| CG15865 | DRSC19733 | -0.435 | -0.0289 | – |
| CG31759 | DRSC01230 | 0.396 | 0.606 | – |

9 entries from above, sorted by “droplet/nuclear area B-score, replicate 2”, highest first.
| Target gene | amplicon | droplet/nuclear area B-score, replicate 1 | droplet/nuclear area B-score, replicate 2 | droplet/nuclear area B-score, replicate 3 |
| --- | --- | --- | --- | --- |
| dmt (dalmatian) | DRSC16932 | -0.0538 | 3.92 | – |
| FMRFa (FMRFamide) | DRSC07428 | 0.34 | 0.416 | – |
| kkv (krotzkopf verkehrt) | DRSC12315 | -3.84 | 0.239 | – |
| moon (moonshiner) | DRSC19497 | 0.01 | -0.0472 | -0.0215 |
| Tmx3 (Thioredoxin-related transmembrane protein 3) | DRSC10471 | -2.52 | -0.0935 | -1.56 |
| dgrn (degringolade) | DRSC12154 | 0.63 | -0.361 | – |
| fos28F (retired record) | DRSC03391 | -2.44 | -0.913 | – |
| PolA2 (DNA polymerase alpha subunit 2) | DRSC16641 | -0.324 | -1.7 | – |
| Ufl1 (UFM1 specific ligase 1) | DRSC12527 | 0.616 | -1.96 | – |
